Drawing on PubChem BioAssay AID1487 (National Center for Advancing Translational Sciences (NCATS), 2009), this text covers AC50 for 55 compounds.

“And” between values parts separate entries of the source, which are not always exact repeats. Equal entries are not always repeated. The list shows a part of the results. Shown are side measurements of this screen, not its main read-out; they come without a call. The list favours compounds with an active or inconclusive main result. Potencies come from curve fits of mixed quality, noted in brackets.

This test in a line: qHTS Assay for Modulators of Lamin A Splicing. To be noted: HeLa LMNA splicing GFP/RFP minigene ratio, 48 h. Summed up: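 S3 HeLa stable clones carrying a lamin A-EGFP splicing minigene plus DsRed2 were seeded at 600 cells/well in Opti-MEM with 2% FBS, pin-dosed and incubated 48 h at 37°C. Acumen cytometry (488 nm) gave the GFP/RFP total-intensity ratio.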
Setting [1] is: measured here: GFP splicing reporter channel.
Where [2] appears, read: measured here: RFP viability control channel.

As a reminder, the AC50 is the concentration giving half of the maximal activity seen.

For `COc1ccc(OCC(=O)Nc2ccc3c(c2)N(C)C(=O)c2ccccc2S3)cc1`, the AC50 was 3.16 µM [falling, partial curve, poor fit] under setting [1] and 0.891 µM [falling, full curve, poor fit] under setting [2].
On to `O=C(NC(Cc1ccccc1)C(=O)Oc1ccc2c(C(F)(F)F)cc(=O)oc2c1)OCc1ccccc1` (stereo unspecified), for which the AC50 by setting is: under setting [1], 35.5 µM [rising, single point]; under setting [2], 35.5 µM [rising, single point].
As to `COc1ccc(OC2C(=O)N(CCc3ccc(OC)c(OC)c3)C2c2ccc3c(c2)OCO3)cc1` (stereo unspecified), the AC50 under setting [2] was 14.1 µM [rising, single point].
On to `Cc1cc(/C=C2\SC(=Nc3ccccc3)NC2=O)c(C)n1-c1ccc(S(N)(=O)=O)cc1`, for which the AC50 under setting [1] is 6.31 µM [falling, partial curve] and the AC50 under setting [2] is 8.91 µM [falling, partial curve].
As for `O=C1CCCC(=O)N1c1ccc(Oc2ccc(Cl)cc2)cc1`, the AC50 under setting [2] is 31.6 µM [rising, single point].
The same measure, in the same setting: the value for `COC(=O)CSc1nnc(-c2cccc(O)c2)o1` was 0.501 µM [falling, single point].
Take `FC(F)(F)c1cnc(NNC(=S)Nc2cccnc2)c(Cl)c1`: under setting [1], the AC50 is 35.5 µM [rising, single point].
With `CCc1ccccc1NC(=O)c1cc(S(=O)(=O)N2CCC(C)CC2)cn1C`, the half-maximal activity concentration (AC50) under setting [2] is 0.00794 µM [falling, full curve, poor fit].
Consider `CC1=C(C(=O)Nc2ccc(C)cc2C)C(c2cc(Br)ccc2F)n2ncc(C(=O)Nc3ccc(C)cc3)c2N1` (stereo unspecified), for which the AC50 was 11.2 µM [falling, partial curve] under setting [1] and 10 µM [falling, partial curve] under setting [2].
On to `O=C1NC(=Nc2ccccc2)/C(=C/c2ccco2)S1`, for which the AC50 under setting [2] was 12.6 µM [rising, partial curve, poor fit].
As for `CC1CCCN(C(=O)Cc2cn(Cc3cccc(Cl)c3)c3ccccc23)C1` (stereo unspecified), the concentration at half-maximal activity (AC50) under setting [2] was 12.6 µM [rising, single point].
`O=C(Nc1ccc(Cl)cc1C(=O)N1CCCC1)c1cccc([N+](=O)[O-])c1`: the concentration at half-maximal activity (AC50) under setting [2] is 4.47 µM [rising, partial curve].
For `O=C(CN1CCOc2ccccc21)NCc1ccc(F)cc1`, under setting [1], the concentration at half-maximal activity (AC50) is 35.5 µM [rising, single point].
In the case of `COc1ccc(-c2noc(CN(C)C3CCOCC3)n2)cc1`, under setting [1], the concentration at half-maximal activity (AC50) is 35.5 µM [falling, partial curve, poor fit].
For `COc1ccc(C(=O)N2CCN(CCc3ccccn3)CC2)cc1`, the AC50 under setting [1] was 6.31 µM [rising, single point].
`C=CCn1c(-c2ccc(OC)cc2)csc1=Nc1c(C)n(C)n(-c2ccccc2)c1=O`: the AC50 under setting [2] was 25.1 µM [rising, single point].
For `O=S(=O)(c1cccc2c(I)cccc12)N1CCCNCC1`, the AC50 under setting [1] was 3.98 µM [falling, full curve, poor fit].
On the same count and under the same terms, in the case of `Cc1ccc(-n2c(SCC(=O)Nc3ccc4c5c(cccc35)CC4)nc(O)cc2=O)cc1` it was 14.1 µM [rising, single point].
As to `Cc1ccc(C(C#N)c2ccc3c(C(F)(F)F)cc(C(F)(F)F)nc3n2)cc1` (stereo unspecified), the half-maximal activity concentration (AC50) under setting [1] was 11.2 µM [rising, partial curve] and the AC50 under setting [2] is 22.4 µM [rising, single point].
On to `O=C(CC1C(=O)N(Cc2ccccc2)C(=S)N1CCN1CCOCC1)Nc1ccc(F)cc1` (stereo unspecified), for which the half-maximal activity concentration (AC50) is, setting by setting: under setting [1], 12.6 µM [rising, partial curve, poor fit]; under setting [2], 11.2 µM [rising, partial curve, poor fit].
As to `CC1=NN(c2ccccc2)C(=O)/C1=C\C=C1\N(C)c2ccccc2C1(C)C`, the AC50 runs as follows: under setting [1], 15.8 µM [rising, partial curve]; under setting [2], 20 µM [rising, partial curve].
Turning to `CCn1nc(NC(=O)c2ccncc2)c2cc3cccc(C)c3nc21`, under setting [2], the concentration at half-maximal activity (AC50) is 7.94 µM [rising, partial curve, poor fit].
`O=C(c1ccc(F)cc1)C(C(=O)N1CCCCC1)n1ccccc1=O` (stereo unspecified): the AC50 under setting [1] is 17.8 µM [rising, partial curve].
`CO/N=C/c1ccc(Sc2ccccc2N)c([N+](=O)[O-])c1`: the AC50 under setting [2] was 20 µM [rising, single point].
In the case of `Cc1ccc(-c2nn3c(C)nnc3c3ccccc23)cc1S(=O)(=O)NC(C)(C)CO`, the half-maximal activity concentration (AC50) was 20 µM [falling, partial curve] under setting [1] and 14.1 µM [falling, partial curve] under setting [2].
For `CCOc1ccc(N(C)S(=O)(=O)c2cc(-c3cnc(C)o3)ccc2OC)cc1`, the AC50 under setting [1] is 0.0224 µM [rising, full curve, poor fit].
For `Cc1cc(C)cc(C(=O)NCC(=O)OCC(=O)NCC(F)(F)F)c1`, the AC50 under setting [2] is 28.2 µM [rising, partial curve, poor fit].
Still for that read-out and setting: in the case of `O=C(Nc1nnc2n1CCS2)c1cc(C(F)(F)F)cc(C(F)(F)F)c1` it was 3.16 µM [rising, partial curve, poor fit].
Turning to `COc1cc(/C=N/O)c(Br)cc1OCC(=O)Nc1ccccc1C`, the AC50 reads like this: under setting [1], 20 µM [rising, single point]; under setting [2], 1.41 µM [rising, partial curve].
`Cc1ccc(C(=O)c2cc([N+](=O)[O-])ccc2N2CCOCC2)c(C)c1`: the half-maximal activity concentration (AC50) by setting is: under setting [1], 1.41 µM [falling, full curve, poor fit]; under setting [2], 1.26 µM [falling, full curve, poor fit].
For the compound `Nc1nc(SCc2ccccc2Cl)[nH]c(=O)c1-c1ccccc1`, under setting [2], the AC50 is 8.91 µM [rising, partial curve].
For the compound `CN(C)S(=O)(=O)c1ccc2c(c1)N(CC(=O)N1CCC(C(N)=O)CC1)CCS2`, the AC50 under setting [2] was 35.5 µM [falling, partial curve, poor fit].
As to `CCOc1ccc(C(=O)Nc2ccc(N3CCN(C)CC3)cc2)cc1[N+](=O)[O-]`, the AC50 under setting [1] is 0.00316 µM [falling, full curve, poor fit].
With `CCCCOc1ccc(-c2nnn(CCC(=O)N3CCOCC3)n2)cc1`, the AC50 under setting [2] was 20 µM [rising, single point].
With `c1ccc(CNc2ncncc2-c2ccc3c(c2)OCO3)cc1`, the concentration at half-maximal activity (AC50) under setting [1] is 20 µM [falling, single point] and the concentration at half-maximal activity (AC50) under setting [2] is 35.5 µM [falling, single point].
Take `CCOc1ccc(NC(=O)c2cc(S(=O)(=O)N3CCC(C)CC3)cn2C)cc1`: the AC50 runs as follows: under setting [1], 6.31 µM [falling, partial curve, poor fit]; under setting [2], 11.2 µM [falling, partial curve].
`N#Cc1nc(Cc2cccc3ccccc23)oc1NCc1ccc2c(c1)OCO2`: the AC50 under setting [2] is 35.5 µM [rising, single point].
Same read-out and setting: the value for `Cc1ccc(NC(=S)N2CCN(C(=O)c3ccccc3)CC2)c(C)c1` was 7.08 µM [falling, partial curve, poor fit].
The same measure, in the same setting: the value for `O=C(COc1ccccc1F)NCc1nc2ccccc2[nH]1` was 0.631 µM [rising, partial curve, poor fit]; that for `Cc1ccc(C2=NN(CCC(=O)NCCC(C)C)C(=O)CC2)cc1` was 0.0158 µM [rising, full curve, poor fit].
In the case of `O=C(c1ccncc1)N1CCN(C2CCCCC2)CC1`, the AC50 under setting [1] was 20 µM [rising, single point].
The same measure, in the same setting: the value for `CCOC(=O)N1CCN(C(=O)Cn2nc(C)c3sc4ccccc4c3c2=O)CC1` was 2 µM [rising, partial curve].
For `CCOC(=O)c1c(NC(=O)Cn2ccsc2=N)sc(C)c1C`, the AC50 under setting [2] was 1 µM [falling, full curve, poor fit].
As to `COc1ccc(S(=O)(=O)N2CCOC2CNC(=O)C(=O)NCCc2ccc(OC)c(OC)c2)cc1` (stereo unspecified), the AC50 under setting [1] was 11.2 µM [rising, partial curve, poor fit] and the half-maximal activity concentration (AC50) under setting [2] is 17.8 µM [rising, partial curve].
For the compound `CSc1nc(NCc2ccco2)c2ccccc2n1`, under setting [2], the AC50 was 20 µM [falling, partial curve, poor fit].
For `CC(C)COc1ccc(-c2nnn(CC(=O)N3CCCC3)n2)cc1`, under setting [2], the concentration at half-maximal activity (AC50) was 31.6 µM [rising, single point].
For the compound `C=CCNC(=S)Nc1ccc2nc(C)oc2c1`, under setting [1], the AC50 was 35.5 µM [rising, single point].
`CCOC(=O)c1c(C)[nH]c(C(=O)OCc2c(C)noc2C)c1C`: the AC50 under setting [2] is 14.1 µM [rising, single point].
Same read-out and setting: the value for `COc1ccc(Nc2cc(C)nc(-n3nc(C)cc3C)n2)cc1` was 0.398 µM [rising, full curve].
For `COc1ccccc1N1CCN(CC(O)COc2cccc3ccccc23)CC1` (stereo unspecified), the AC50 runs as follows: under setting [1], 35.5 µM [falling, single point] and 4.47 nM [falling, full curve, poor fit] and 3.98 µM [rising, partial curve]; under setting [2], 891 nM [falling, single point] and 4.47 nM [falling, full curve, poor fit] and 12.6 µM [rising, partial curve].
As for `O=C(COc1ccc(/C=N/NS(=O)(=O)c2ccccc2)cc1)Nc1cccc(Cl)c1`, under setting [2], the AC50 was 22.4 µM [rising, single point].
With `CCOc1ccc(CC(=O)NCc2ccc3c(c2)CCN3C(=O)c2ccc(F)cc2)cc1OCC`, the half-maximal activity concentration (AC50) under setting [2] is 12.6 µM [falling, single point].
Consider `Cc1noc(C)c1-c1nc(Nc2ccc(F)cc2)c2ccccc2n1`, for which the concentration at half-maximal activity (AC50) reads like this: under setting [1], 15.8 µM [falling, partial curve]; under setting [2], 15.8 µM [falling, partial curve].
As to `CC(C)Oc1cccc(C(=O)C2CCCN(Cc3cnc(N4CCCC4)s3)C2)c1` (stereo unspecified), the concentration at half-maximal activity (AC50) is 0.01 µM [falling, partial curve, poor fit] under setting [1] and 0.01 µM [falling, full curve, poor fit] under setting [2].
For `COc1ccc(NC(=S)N2CCN(CCN3C(=O)c4cccc5cccc(c45)C3=O)CC2)cc1`, the AC50 under setting [2] is 35.5 µM [falling, single point].
